Data reported in publication PMC3291577.
Results are given in words; binding and its absence hold for the method and conditions named. Binding seen in cells or lysates may run through a third protein. Some results given as binding are weak or reduced against the parent protein; the word gives no strength. For some of these results: Where a sequence is shown, tags or fusion partners need not be part of it.

Amino acid sequences for entries named in this document (tags omitted).
UniProt P25439: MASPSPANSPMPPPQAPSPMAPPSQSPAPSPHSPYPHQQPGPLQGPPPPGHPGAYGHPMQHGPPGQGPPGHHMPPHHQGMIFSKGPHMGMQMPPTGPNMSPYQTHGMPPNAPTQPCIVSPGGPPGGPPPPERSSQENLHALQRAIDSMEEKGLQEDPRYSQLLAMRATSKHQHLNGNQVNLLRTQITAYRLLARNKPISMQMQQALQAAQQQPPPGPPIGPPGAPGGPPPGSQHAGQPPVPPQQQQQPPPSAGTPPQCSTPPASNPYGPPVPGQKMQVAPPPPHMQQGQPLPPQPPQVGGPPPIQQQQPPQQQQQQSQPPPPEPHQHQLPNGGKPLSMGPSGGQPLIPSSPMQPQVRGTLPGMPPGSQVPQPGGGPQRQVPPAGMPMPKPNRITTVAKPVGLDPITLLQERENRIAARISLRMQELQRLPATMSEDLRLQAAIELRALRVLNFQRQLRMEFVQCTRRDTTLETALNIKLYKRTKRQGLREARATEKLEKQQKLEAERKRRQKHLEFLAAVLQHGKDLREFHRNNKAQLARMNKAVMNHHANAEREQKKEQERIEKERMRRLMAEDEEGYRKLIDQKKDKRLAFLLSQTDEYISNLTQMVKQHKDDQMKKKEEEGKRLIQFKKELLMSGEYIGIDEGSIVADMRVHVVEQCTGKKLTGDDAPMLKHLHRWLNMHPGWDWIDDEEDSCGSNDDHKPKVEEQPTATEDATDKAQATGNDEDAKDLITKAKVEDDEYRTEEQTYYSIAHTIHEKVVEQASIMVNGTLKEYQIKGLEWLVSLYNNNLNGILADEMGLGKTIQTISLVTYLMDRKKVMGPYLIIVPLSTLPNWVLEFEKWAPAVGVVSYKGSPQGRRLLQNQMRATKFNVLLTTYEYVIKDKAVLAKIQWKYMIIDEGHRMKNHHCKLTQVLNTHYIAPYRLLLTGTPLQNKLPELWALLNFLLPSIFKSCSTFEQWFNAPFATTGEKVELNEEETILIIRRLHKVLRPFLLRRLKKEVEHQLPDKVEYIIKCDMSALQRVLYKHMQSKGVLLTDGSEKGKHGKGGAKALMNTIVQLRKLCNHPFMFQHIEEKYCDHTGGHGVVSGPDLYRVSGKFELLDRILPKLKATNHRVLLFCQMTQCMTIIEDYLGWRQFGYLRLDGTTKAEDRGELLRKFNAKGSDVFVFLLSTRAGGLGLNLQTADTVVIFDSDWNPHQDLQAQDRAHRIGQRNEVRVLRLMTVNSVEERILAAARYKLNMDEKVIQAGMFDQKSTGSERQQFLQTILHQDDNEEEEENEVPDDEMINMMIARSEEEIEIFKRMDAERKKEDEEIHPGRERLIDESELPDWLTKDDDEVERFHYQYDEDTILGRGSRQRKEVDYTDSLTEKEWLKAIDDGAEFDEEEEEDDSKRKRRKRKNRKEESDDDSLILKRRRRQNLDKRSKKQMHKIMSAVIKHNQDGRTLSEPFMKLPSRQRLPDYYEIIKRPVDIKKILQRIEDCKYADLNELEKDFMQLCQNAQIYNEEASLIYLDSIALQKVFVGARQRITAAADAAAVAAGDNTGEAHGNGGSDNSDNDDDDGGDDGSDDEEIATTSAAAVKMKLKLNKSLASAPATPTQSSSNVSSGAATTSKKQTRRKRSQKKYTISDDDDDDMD

T1: tagged Akirin (Drosophila melanogaster) (UniProt Q9VS59)
T1 sequence: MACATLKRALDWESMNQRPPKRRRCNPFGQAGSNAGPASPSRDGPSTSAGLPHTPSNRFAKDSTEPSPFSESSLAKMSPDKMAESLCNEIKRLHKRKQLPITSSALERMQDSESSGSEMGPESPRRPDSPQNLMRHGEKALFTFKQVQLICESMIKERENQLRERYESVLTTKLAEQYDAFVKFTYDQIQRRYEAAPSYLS

T2: GST-Twist fusion protein (Drosophila melanogaster) (UniProt P10627)
T2 sequence: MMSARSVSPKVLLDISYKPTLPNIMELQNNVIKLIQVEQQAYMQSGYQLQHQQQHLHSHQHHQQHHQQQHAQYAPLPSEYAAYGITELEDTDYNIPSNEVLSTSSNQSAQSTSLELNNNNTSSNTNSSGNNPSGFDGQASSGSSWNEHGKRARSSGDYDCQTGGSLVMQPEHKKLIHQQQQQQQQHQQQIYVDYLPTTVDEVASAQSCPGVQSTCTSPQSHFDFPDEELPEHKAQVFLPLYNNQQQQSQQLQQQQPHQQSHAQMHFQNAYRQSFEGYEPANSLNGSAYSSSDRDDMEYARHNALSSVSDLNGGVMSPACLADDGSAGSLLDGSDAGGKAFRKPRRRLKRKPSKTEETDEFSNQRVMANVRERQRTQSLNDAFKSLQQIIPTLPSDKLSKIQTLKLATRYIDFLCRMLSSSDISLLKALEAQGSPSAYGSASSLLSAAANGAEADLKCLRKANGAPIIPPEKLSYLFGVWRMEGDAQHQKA


Tests used:
[1] = target: T1, tagged Akirin (Drosophila melanogaster); experiment: co-IP; embryonic lysates with tagged Akirin; data not shown
[2] = target: T2, GST-Twist fusion protein (Drosophila melanogaster); experiment: pull-down; GST or GST-Twist on Glutathione Sepharose 4B beads in ZTx buffer (25 mM HEPES pH 7.5, 12.5 mM MgCl2, 20% glycerol, 0.1% Triton-X 100, 150 mM KCl) + 0.25 mg/ml BSA, 1 mM DTT; 35S-labelled in vitro translated proteins, 1 hour at room temperature; washed in NETTx buffer; autoradiography; only the target purified
[3] = target: Brahma core subunit (Drosophila melanogaster (endogenous in embryos)) (UniProt P25439); experiment: co-IP; anti-Brahma antibody, protein A-agarose, total nondenatured yw embryo extracts at 3 mg/mL in IP buffer (10 mM HEPES pH 8, 100 mM NaCl, 10% glycerol, 0.05% Tween-20), 1 hour at 4°C

binding [2]	Molecule	also measured
–	Brahma core subunit (from UniProt P25439 1-1638)	binding [1]: binds weakly
binds	in vitro translated Akirin (35S-methionine-labelled) (protein, UniProt Q9VS59 1-201, 35S-methionine-labelled) MACATLKRALDWESMNQRPPKRRRCNPFGQAGSNAGPASPSRDGPSTSAGLPHTPSNRFAKDSTEPSPFSESSLAKMSPDKMAESLCNEIKRLHKRKQLPITSSALERMQDSESSGSEMGPESPRRPDSPQNLMRHGEKALFTFKQVQLICESMIKERENQLRERYESVLTTKLAEQYDAFVKFTYDQIQRRYEAAPSYLS	–
binds	in vitro translated Daughterless (35S-methionine-labelled) (protein, UniProt P11420 1-710, 35S-methionine-labelled) MATSDDEPMHLYEVFQNCFNKIANKQPTGTVGADRGGGGGYHSPYGSLGVENGMYPSDFNSMHDTVNGGNNRYANASTVDQYFDSAAAGSGGAWCQPQMSSANSYMGQSAYQNSGPLSGHSIDQQQQQVHQADGLGMGGGGGGGVGADGMHCPVTTGLPPISSFRPTSGGIGGPGAGQQAPVNVNVNPPAVFNSPQAHNHNHTVQAQHSALSTAGPLGHHSLNHTPHAHSHTLPLPHALPHGHTLPHPHHSQQNSPAVQSSDAFSGAGASVKVAGAGNSSAAALRQQMYMPADQSISSFGSNPSTPVNSPPPLTQSVVGGGGEPSVSGGSGWGHSVLNGGPSSSYASEMVPVSSLHTMASVFQGVRMEERLDDALNVLRNHCEPEMLAGVNQSLASIDNIDALTSFVPNSPSHLGSGGNSGSVSNTSNAALVHEVLALGAAAAAGTSGQSVGGAGSLASLKLDRSASTSLPKQTKKRKEHTAISNSVPAGVSTTSSLTSLDISDTKPTSSIESSNSGLQQHSQGKGTKRPRRYCSSADEDDDAEPAVKAIREKERRQANNARERIRIRDINEALKELGRMCMTHLKSDKPQTKLGILNMAVEVIMTLEQQVRERNLNPKAACLKRREEEKAEDGPKLSAQHHMIPQPQQVGGTPGSSYHSQPAQLVPPSSQTISTMTISLPVNQANNGLPPHLQQQQQQQSQLGHAQLPQ	–
–	Twist (endogenous, embryonic extract) (protein, UniProt P10627 1-490) MMSARSVSPKVLLDISYKPTLPNIMELQNNVIKLIQVEQQAYMQSGYQLQHQQQHLHSHQHHQQHHQQQHAQYAPLPSEYAAYGITELEDTDYNIPSNEVLSTSSNQSAQSTSLELNNNNTSSNTNSSGNNPSGFDGQASSGSSWNEHGKRARSSGDYDCQTGGSLVMQPEHKKLIHQQQQQQQQHQQQIYVDYLPTTVDEVASAQSCPGVQSTCTSPQSHFDFPDEELPEHKAQVFLPLYNNQQQQSQQLQQQQPHQQSHAQMHFQNAYRQSFEGYEPANSLNGSAYSSSDRDDMEYARHNALSSVSDLNGGVMSPACLADDGSAGSLLDGSDAGGKAFRKPRRRLKRKPSKTEETDEFSNQRVMANVRERQRTQSLNDAFKSLQQIIPTLPSDKLSKIQTLKLATRYIDFLCRMLSSSDISLLKALEAQGSPSAYGSASSLLSAAANGAEADLKCLRKANGAPIIPPEKLSYLFGVWRMEGDAQHQKA	binding [3]: binds
